The results in this text go back to PubChem BioAssay AID445 (National Center for Advancing Translational Sciences (NCATS), 2006).

The list shows a part of the results. These are further read-outs of the screen, such as a control signal, another cell line or another target. No call is given for them. The list favours compounds with an active or inconclusive main result. Potencies come from curve fits of mixed quality, noted in brackets.

The assay in a line: IkB Signaling. Conditions: ABC-DLBCL IkBa-CBG/CBR dual luciferase ratio (green luciferase fused to IkBa over red control in OCI-Ly3 lymphoma cells), 4 h. Summed up: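 Luminescence ratio of IκBα-fused green versus native red beetle luciferase in OCI-Ly3 cells, 4 h post-doxycycline with compound; red signal alone, scaled from basal (0%) to zero light (-100%), flagged nonspecific or cytotoxic effects.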
Setting [1] is: measured here: control luc red channel unless noted.

Regarding `CCCCOC(=O)CSc1nnc(-c2cc(OC)c(OC)c(OC)c2)o1`, the AC50 by setting is: (measured here: IkB-luc green channel) 25.1 µM [rising, single point]; (measured here: control luc red channel) 31.6 µM [falling, single point]. Turning to `O=C(Nc1ccc(-c2nnco2)cc1)c1ccccc1`, the AC50 under setting [1] is 10 µM [falling, partial curve]. Take `Cc1ccc(CSc2ncc(Cl)c(C(=O)NCCc3ccc(S(N)(=O)=O)cc3)n2)cc1`: the AC50 under setting [1] is 31.6 µM [rising, partial curve].

As to `COc1ccc(NC(=O)CSc2nc(-c3ccc(OC)cc3)[nH]c2-c2ccc(OC)cc2)cc1`, the AC50 under setting [1] was 3.16 µM [falling, partial curve].

For the compound `C=CCn1c(SCC(=O)NCCCC)nc2scc(-c3ccco3)c2c1=O`, the AC50 under setting [1] was 5.01 µM [rising, full curve] [measured here: IkB-luc green channel]. Regarding `COC(=O)c1ccc(Nc2nnc(-c3ccc(C)c(S(=O)(=O)N4CCN(C)CC4)c3)c3ccccc23)cc1`, the AC50 under setting [1] was 20 µM [falling, partial curve]. Regarding `COc1ccc(-c2nc3ccccc3s2)cc1NC(=O)COc1ccc(C)cc1`, the AC50 under setting [1] was 2.51 µM [rising, partial curve]. As to `COC(=O)c1[nH]c2ccc(Br)cc2c1NC(=O)C(C)N1CCN(C2CCCCC2)CC1` (configuration not stated), the AC50 under setting [1] is 31.6 µM [falling, partial curve]. Turning to `O=C(NCc1ccco1)c1cccc(-c2nnc(-c3ccccc3)o2)c1`, under setting [1], the AC50 is 3.98 µM [falling, full curve]. As for `CCOCCCN1C(=O)CN(C2CCCCCC2)C(=O)C1c1ccc(OC(C)C)c(OC)c1` (configuration not stated), the AC50 under setting [1] was 20 µM [falling, partial curve].

`CCC1CCCCN1S(=O)(=O)c1ccc(C(=O)Nc2sc3c(c2C(=O)NC)CCC3)cc1` (configuration not stated): the AC50 under setting [1] is 3.16 µM [falling, partial curve]. For `O=C(O)COc1ccccc1C1C2C(=O)N(c3ccccc3)C(=O)C2ON1c1ccccc1` (configuration not stated), the AC50 under setting [1] was 1.58 µM [falling, full curve]. `COc1ccccc1CNC(=O)c1oc2ccc(S(=O)(=O)N3CCCCC3)cc2c1C`: the AC50 under setting [1] is 25.1 µM [falling, partial curve, poor fit].

In the case of `Cc1nn(-c2ccccc2)c(OC(=O)C(C)C)c1Sc1ccccc1`, the AC50 under setting [1] was 3.98 µM [falling, partial curve].

In the case of `Cc1ccc(NC(=O)Cc2ccc(-n3c(C)nc4cccnc43)cc2)cc1C`, the AC50 under setting [1] was 25.1 µM [falling, single point]. Take `CCOC(=O)c1cc(-c2ccccc2)n(CCCC(=O)Nc2ccc(C(C)C)cc2)c1C`: under setting [1], the AC50 is 31.6 µM [falling, partial curve].

By AC50 is commonly meant the concentration at which the activity in the assay is half-maximal.
